{"source": "patent US11970455B1", "about": "“7-(4-fluorobenzylidene)-4-(4-fluorophenyl)-2-methoxy-6,7-dihydro-5H-cyclopenta[b]pyridine-3-carbonitrile as an antimicrobial compound” (KING FAISAL UNIVERSITY, priority 2023, dated 2024)", "type_in_all_cases": "cell-based", "key": {"[1]": {"tested_on": "Escherichia coli", "experiment": "Antimicrobial testing by agar dilution, E. Coli", "procedure": "(§1) The antimicrobial properties of the 7-(4-fluorobenzylidene)-4-(4-fluorophenyl)-2-methoxy-6,7-dihydro-5H-cyclopenta[b]pyridine-3-carbonitrile was studied by the method of agar dilution. Test solutions of each compound was prepared in concentration of 1% using dimethylformamide as a solvent then they are diluted in physiological solution to obtain the final experimental dilutions 1:100, 1:200, 1:400, 1:800. The effect of these substances are compared with furacillin in a controllable study. The testing microbes used were gram positive bacteria Staphylococcus aureus, gram negative bacteria Pseudomonas aeruginosa, Escherichia coli and Candida albicans fungi were taken. The experiments used for this survey were meat-pentonlu agar (EPA) for cultivation of bacteria and Saburo environment for fungi. Each experiment used 1 mL of test solution on each plate 500 min. Add 2 drops of emulsified with microbes feel. All experimental samples were taken from the agar after 10, 20, 40, 60 minutes in the environment on the basis of Patrk planted. Bacteria were cultivated at a temperature of 37° C. for 1 day and the mushroom was kept in a thermostat for […] at a temperature of 28° C. Then the results were checked."}, "[2]": {"tested_on": "Candida albicans", "experiment": "Antimicrobial testing by agar dilution, Candida albicans", "procedure": "as §1"}, "[3]": {"tested_on": "Pseudomonas aeruginosa", "experiment": "Antimicrobial testing by agar dilution, Ps. aeruginosa", "procedure": "as §1"}, "[4]": {"tested_on": "Staphylococcus aureus", "experiment": "Antimicrobial testing by agar dilution, St. Aereus", "procedure": "as §1"}, "[5]": {"conditions": "dilution rate 1:100, exposure time 10 min"}, "[6]": {"conditions": "dilution rate 1:100, exposure time 20 min"}, "[7]": {"conditions": "dilution rate 1:100, exposure time 40 min"}, "[8]": {"conditions": "dilution rate 1:100, exposure time 60 min"}, "[9]": {"conditions": "dilution rate 1:200, exposure time 10 min"}, "[10]": {"conditions": "dilution rate 1:200, exposure time 20 min"}, "[11]": {"conditions": "dilution rate 1:200, exposure time 40 min"}, "[12]": {"conditions": "dilution rate 1:200, exposure time 60 min"}, "[13]": {"conditions": "dilution rate 1:400, exposure time 10 min"}, "[14]": {"conditions": "dilution rate 1:400, exposure time 20 min"}, "[15]": {"conditions": "dilution rate 1:400, exposure time 40 min"}, "[16]": {"conditions": "dilution rate 1:400, exposure time 60 min"}, "[17]": {"conditions": "dilution rate 1:800, exposure time 10 min"}, "[18]": {"conditions": "dilution rate 1:800, exposure time 20 min"}, "[19]": {"conditions": "dilution rate 1:800, exposure time 40 min"}, "[20]": {"conditions": "dilution rate 1:800, exposure time 60 min"}}, "note": "At least one structure is not confirmed: it was looked up by name or label, or the drawing left a doubt."}
{"compound": "NC(=O)N/N=C/c1ccc([N+](=O)[O-])o1", "note": "[Furacilin]", "values": [{"measurement": "antimicrobial activity", "setting": "[1]; [5]", "value": "−"}, {"measurement": "antimicrobial activity", "setting": "[1]; [6]", "value": "−"}, {"measurement": "antimicrobial activity", "setting": "[1]; [7]", "value": "−"}, {"measurement": "antimicrobial activity", "setting": "[1]; [8]", "value": "−"}, {"measurement": "antimicrobial activity", "setting": "[1]; [9]", "value": "+"}, {"measurement": "antimicrobial activity", "setting": "[1]; [10]", "value": "+"}, {"measurement": "antimicrobial activity", "setting": "[1]; [11]", "value": "+"}, {"measurement": "antimicrobial activity", "setting": "[1]; [12]", "value": "+"}, {"measurement": "antimicrobial activity", "setting": "[1]; [13]", "value": "+"}, {"measurement": "antimicrobial activity", "setting": "[1]; [14]", "value": "+"}, {"measurement": "antimicrobial activity", "setting": "[1]; [15]", "value": "+"}, {"measurement": "antimicrobial activity", "setting": "[1]; [16]", "value": "+"}, {"measurement": "antimicrobial activity", "setting": "[1]; [17]", "value": "+"}, {"measurement": "antimicrobial activity", "setting": "[1]; [18]", "value": "+"}, {"measurement": "antimicrobial activity", "setting": "[1]; [19]", "value": "+"}, {"measurement": "antimicrobial activity", "setting": "[1]; [20]", "value": "+"}, {"measurement": "antimicrobial activity", "setting": "[2]; [5]", "value": "−"}, {"measurement": "antimicrobial activity", "setting": "[2]; [6]", "value": "−"}, {"measurement": "antimicrobial activity", "setting": "[2]; [7]", "value": "+"}, {"measurement": "antimicrobial activity", "setting": "[2]; [8]", "value": "+"}, {"measurement": "antimicrobial activity", "setting": "[2]; [9]", "value": "+"}, {"measurement": "antimicrobial activity", "setting": "[2]; [10]", "value": "+"}, {"measurement": "antimicrobial activity", "setting": "[2]; [11]", "value": "+"}, {"measurement": "antimicrobial activity", "setting": "[2]; [12]", "value": "+"}, {"measurement": "antimicrobial activity", "setting": "[2]; [13]", "value": "+"}, {"measurement": "antimicrobial activity", "setting": "[2]; [14]", "value": "+"}, {"measurement": "antimicrobial activity", "setting": "[2]; [15]", "value": "+"}, {"measurement": "antimicrobial activity", "setting": "[2]; [16]", "value": "+"}, {"measurement": "antimicrobial activity", "setting": "[2]; [17]", "value": "+"}, {"measurement": "antimicrobial activity", "setting": "[2]; [18]", "value": "+"}, {"measurement": "antimicrobial activity", "setting": "[2]; [19]", "value": "+"}, {"measurement": "antimicrobial activity", "setting": "[2]; [20]", "value": "+"}, {"measurement": "antimicrobial activity", "setting": "[3]; [5]", "value": "+"}, {"measurement": "antimicrobial activity", "setting": "[3]; [6]", "value": "+"}, {"measurement": "antimicrobial activity", "setting": "[3]; [7]", "value": "+"}, {"measurement": "antimicrobial activity", "setting": "[3]; [8]", "value": "+"}, {"measurement": "antimicrobial activity", "setting": "[3]; [9]", "value": "+"}, {"measurement": "antimicrobial activity", "setting": "[3]; [10]", "value": "+"}, {"measurement": "antimicrobial activity", "setting": "[3]; [11]", "value": "+"}, {"measurement": "antimicrobial activity", "setting": "[3]; [12]", "value": "+"}, {"measurement": "antimicrobial activity", "setting": "[3]; [13]", "value": "+"}, {"measurement": "antimicrobial activity", "setting": "[3]; [14]", "value": "+"}, {"measurement": "antimicrobial activity", "setting": "[3]; [15]", "value": "+"}, {"measurement": "antimicrobial activity", "setting": "[3]; [16]", "value": "+"}, {"measurement": "antimicrobial activity", "setting": "[3]; [17]", "value": "+"}, {"measurement": "antimicrobial activity", "setting": "[3]; [18]", "value": "+"}, {"measurement": "antimicrobial activity", "setting": "[3]; [19]", "value": "+"}, {"measurement": "antimicrobial activity", "setting": "[3]; [20]", "value": "+"}, {"measurement": "antimicrobial activity", "setting": "[4]; [5]", "value": "−"}, {"measurement": "antimicrobial activity", "setting": "[4]; [6]", "value": "−"}, {"measurement": "antimicrobial activity", "setting": "[4]; [7]", "value": "−"}, {"measurement": "antimicrobial activity", "setting": "[4]; [8]", "value": "−"}, {"measurement": "antimicrobial activity", "setting": "[4]; [9]", "value": "+"}, {"measurement": "antimicrobial activity", "setting": "[4]; [10]", "value": "+"}, {"measurement": "antimicrobial activity", "setting": "[4]; [11]", "value": "+"}, {"measurement": "antimicrobial activity", "setting": "[4]; [12]", "value": "+"}, {"measurement": "antimicrobial activity", "setting": "[4]; [13]", "value": "+"}, {"measurement": "antimicrobial activity", "setting": "[4]; [14]", "value": "+"}, {"measurement": "antimicrobial activity", "setting": "[4]; [15]", "value": "+"}, {"measurement": "antimicrobial activity", "setting": "[4]; [16]", "value": "+"}, {"measurement": "antimicrobial activity", "setting": "[4]; [17]", "value": "+"}, {"measurement": "antimicrobial activity", "setting": "[4]; [18]", "value": "+"}, {"measurement": "antimicrobial activity", "setting": "[4]; [19]", "value": "+"}, {"measurement": "antimicrobial activity", "setting": "[4]; [20]", "value": "+"}]}
